No constants are given. Whether binding was seen depends on the method and setting. In cells and extracts the contact can be indirect.

Protein sequences, listed by entry. Tags and fused reporters are not part of them. Lines headed by an entry give the natural chain unless they say otherwise; changes in a name come on top. Chains listed by the source or under a name are the forms on record and can include a tag or linker.
full-length PAR1b (PAR1b-FL), epitope-tagged, expressed in cells (Q7KZI7-14, form named): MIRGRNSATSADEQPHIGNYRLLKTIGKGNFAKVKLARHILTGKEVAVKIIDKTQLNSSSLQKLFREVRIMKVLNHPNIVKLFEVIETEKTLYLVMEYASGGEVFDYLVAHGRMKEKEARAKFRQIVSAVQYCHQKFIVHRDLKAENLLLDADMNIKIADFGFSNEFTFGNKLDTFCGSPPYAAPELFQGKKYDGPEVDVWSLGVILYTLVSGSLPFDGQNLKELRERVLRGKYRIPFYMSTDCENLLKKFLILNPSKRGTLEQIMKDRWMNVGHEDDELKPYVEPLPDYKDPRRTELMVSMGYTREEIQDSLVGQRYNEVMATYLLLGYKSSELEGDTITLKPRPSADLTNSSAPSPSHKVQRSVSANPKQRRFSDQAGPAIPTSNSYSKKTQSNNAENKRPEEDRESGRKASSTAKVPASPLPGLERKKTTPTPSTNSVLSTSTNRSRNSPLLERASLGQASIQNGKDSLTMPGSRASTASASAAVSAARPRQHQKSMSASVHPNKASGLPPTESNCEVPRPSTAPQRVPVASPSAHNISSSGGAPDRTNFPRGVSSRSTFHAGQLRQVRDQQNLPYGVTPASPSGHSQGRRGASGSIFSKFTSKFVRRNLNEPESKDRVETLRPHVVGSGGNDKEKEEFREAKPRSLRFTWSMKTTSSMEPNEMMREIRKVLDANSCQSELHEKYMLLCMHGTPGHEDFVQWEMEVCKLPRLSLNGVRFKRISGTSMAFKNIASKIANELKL

The assay addresses FLAG-PAR1b-∆spacer (UniProt Q7KZI7). Description: co-IP; AGS cells transiently co-transfected, total cell lysate after 24 h, anti-FLAG immunoprecipitation, immunoblot for the T7-tagged copy; also after transfection of 2 µg/mL 3000 nt ssDNA or 3000 bp dsDNA for 5 h, and in AGS cells stably expressing EBERs (FLAG- and HA-tagged copies). On the technique in general: In western blotting, separated proteins are transferred to a membrane and probed.

For the substance “full-length PAR1b (PAR1b-FL), epitope-tagged, expressed in cells (from UniProt Q7KZI7-14 1-745)”, the binding result is reported as “no binding”.

These data come from PMC9223676.
